Measured values taken from PubChem BioAssay AID1487 (National Center for Advancing Translational Sciences (NCATS), 2009).
In all, about 200,000 compounds went through this assay and about 25 (0.01%) were called active. This list was built around the results that the source calls inconclusive (neither active nor inactive); the mix of calls is not that of the screen. Calls follow the shape of the dose curve; as a rule, active = well fitted inhibition curve with a large enough effect in the signal ratio, with a control signal flat (not every such curve was filed as active); inconclusive = small, poorly fitted or top-dose-only effect, or effect the other way, or a change in a side signal; inactive = flat fitted curve, though single readings scatter; the % refers to the signal ratio. Potencies beside an inconclusive call are fits to weak or partial responses and may not hold up.

test: qHTS Assay for Modulators of Lamin A Splicing; details: HeLa LMNA splicing GFP/RFP minigene ratio, 48 h; ratio change, negative = inhibition: at 46.1 µM (top of the series) unless noted
Procedure, shortened: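 S3 HeLa stable clones carrying a lamin A-EGFP splicing minigene plus DsRed2 were seeded at 600 cells/well in Opti-MEM with 2% FBS, pin-dosed and incubated 48 h at 37°C. Acumen cytometry (488 nm) gave the GFP/RFP total-intensity ratio.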
% is scaled to controls: 0 for no effect and ±100 for the full control effect; potency is read from the fitted curve at half-maximal effect.

Structure (SMILES)	Potency	ratio change, negative = inhibition
COc1ccc(CN(C(=O)CSc2nnc(-c3ccc(F)cc3)o2)c2ccc(F)cc2)cc1	inconclusive: 35.5 µM [fluorescent, single point]	–
O=C(Cn1cnc2onc(-c3ccc(F)cc3)c2c1=O)N1CCN(c2ccc(F)cc2)CC1	–	inactive: 5.43% [at 46 µM]
Nc1nc(-c2ccc(Cl)cc2)nn1C(=O)c1cccs1	–	inconclusive: -13.4% [at 9.22 µM]
COc1cccc(CNC(=O)C(=O)NCC(c2ccco2)S(=O)(=O)c2ccccc2)c1 (configuration not stated)	–	inconclusive: -5.44% [at 46 µM]
Cc1nn(-c2ccccc2)c2c1P(=O)(O)/C(=C1\N(C)c3ccccc3C1(C)C)C=N2	–	inconclusive: 7.59%
CC1CCN(c2c(NCC3CCC(C(=O)NCCc4ccccc4)CC3)c(=O)c2=O)CC1 (configuration not stated)	–	inconclusive: -6.71%
CCOC(=O)c1sc(NC(=O)CSc2nnc(-c3ccco3)n2CC)c(C(=O)OCC)c1C	–	inactive: 7.11%
CCOc1cc(CNCc2cccnc2)ccc1OCC(=O)NC(C)(C)C	–	inconclusive: 22.2% [at 46 µM]
COc1ccc(-c2cc3ccc(O)c(CN4CCCC(C)C4)c3oc2=O)cc1OC (configuration not stated)	–	inconclusive: -6.23% [at 46 µM]
CCN1C(=O)/C(=C\N2CCCCCC2)SC1=S	–	inactive: -16.7%
CCC(Sc1nnc2c3ccccc3n(CC)c2n1)C(=O)Nc1sc2c(c1C#N)CCCC2 (configuration not stated)	–	inactive: -0.846%
CSc1nnc(CSc2cc(C)nc(N(C)C)n2)o1	–	inactive: 4.26%
O=C(Nc1nnc(SCc2ccccc2)s1)c1ccco1	–	inconclusive: 19.2%
COc1ccc(NC(=O)Cn2c(=O)n(-c3ccccc3)c(=O)c3oc4ccccc4c32)c(OC)c1	–	inconclusive: 7.79%
CC(=O)N1CCC(N(CCN2CCOCC2)C(=S)Nc2cc(C)ccc2C)CC1	–	inactive: -9.44%
Cc1ccc(Cl)cc1NC(=O)CN1C=NS(=O)(=O)c2ccccc21	–	inconclusive: 8.23% [at 46 µM]
CCOC(=O)c1cnc2c(OC)cccc2c1N1CCN(c2ccccn2)CC1	inconclusive: 10 µM [inhibitor, partial curve, poor fit]	–
Cc1cccc(N2CCN(CCCNC(=O)Cn3ncc4c([nH]c5ccccc54)c3=O)CC2C)c1 (configuration not stated)	–	inactive: 3.59% [at 46 µM]
O=C(NCCS(=O)(=O)N1CCN(c2cccc(Cl)c2)CC1)C(c1ccccc1)c1ccccc1	–	inactive: 14% [at 46 µM]
CCN(C(=O)c1ccco1)c1nc(CC(=O)Nc2ccc(Cl)cc2)cs1	inconclusive: 12.6 µM [fluorescent, single point]	–
COc1ccc(Br)cc1C(=O)Nc1ccccc1N1CCN(C(=O)c2ccccc2)CC1	–	inconclusive: 11.9% [at 46 µM]
Cc1noc(C)c1CN1C(=O)NC(Cc2ccccc2)(Cc2ccccc2)C1=O	–	inactive: -4.51%

Three entries from above, arranged by count of non-hydrogen atoms, rising.
Structure (SMILES)	Potency	ratio change, negative = inhibition
CCN1C(=O)/C(=C\N2CCCCCC2)SC1=S	–	inactive: -16.7%
CCOc1cc(CNCc2cccnc2)ccc1OCC(=O)NC(C)(C)C	–	inconclusive: 22.2% [at 46 µM]
Cc1nn(-c2ccccc2)c2c1P(=O)(O)/C(=C1\N(C)c3ccccc3C1(C)C)C=N2	–	inconclusive: 7.59%
